Measured values: article PMC8622445
No constants are given. Whether binding was seen depends on the method and setting. Binding can be weak; no strength is given.

Protein sequences, listed by entry. Tags and fused reporters are not part of them. Lines headed by an entry give the natural chain unless they say otherwise; changes in a name come on top.
UniProt Q9HCN6: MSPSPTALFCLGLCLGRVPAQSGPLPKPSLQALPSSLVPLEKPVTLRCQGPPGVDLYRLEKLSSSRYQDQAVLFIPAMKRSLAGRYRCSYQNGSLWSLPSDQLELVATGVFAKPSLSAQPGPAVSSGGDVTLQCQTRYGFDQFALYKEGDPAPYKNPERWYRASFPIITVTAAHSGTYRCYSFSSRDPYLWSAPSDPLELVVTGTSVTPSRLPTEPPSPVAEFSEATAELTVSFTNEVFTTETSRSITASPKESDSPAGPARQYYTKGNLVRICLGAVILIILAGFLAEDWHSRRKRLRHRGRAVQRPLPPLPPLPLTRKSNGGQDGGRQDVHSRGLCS

Target: T1, biglycan (BGN), recombinant (human) (UniProt P21810)
T1 sequence: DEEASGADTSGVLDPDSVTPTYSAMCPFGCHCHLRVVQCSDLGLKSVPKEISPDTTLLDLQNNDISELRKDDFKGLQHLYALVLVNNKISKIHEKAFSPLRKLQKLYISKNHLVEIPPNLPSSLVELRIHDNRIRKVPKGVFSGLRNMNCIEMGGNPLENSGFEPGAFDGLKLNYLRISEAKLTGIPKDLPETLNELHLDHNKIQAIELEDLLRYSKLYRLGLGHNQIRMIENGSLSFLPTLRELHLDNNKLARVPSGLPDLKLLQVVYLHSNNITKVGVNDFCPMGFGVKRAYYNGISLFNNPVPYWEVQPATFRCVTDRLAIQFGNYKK
Assay: peptide or protein array; Microarray AVEXIS screening: BGN immobilised (100 ng/uL; the legend says on MaxiSorp plate, the methods say printed slides); blocked with PBS, 1% BSA, 10 mM D-biotin; normalized prey proteins incubated 1 h; detected with anti-Flag HRP antibody and TSA Alexa 555; 22 °C

binding: binds
Substance: pentameric GPVI (glycoprotein VI, collagen receptor) (from UniProt Q9HCN6)
